Data as given in PubChem BioAssay AID1671195 (Yale University, 2021).
Assay: 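Regulators of LDL receptor activity judged by labelled LDL uptake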 (primary screen). Cells: human Huh7 hepatoma cells. Knock-down reagent: siRNA pool against human genes, 18 nM. Duration: about 2 to 2.5 days of knockdown, then 8 h LDL uptake. Challenge: DiI-labelled LDL at 30 µg/ml for 8 h, in lipoprotein-deficient serum medium. Measured: 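Fluorescent LDL signal imaged in cells, scaled to the plate median, robust z-score for each replicate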. Reading the numbers: robust z-score: higher = more LDL uptake after knockdown. Call rule: 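Active when two or more replicates show a robust z-score above 2 or below -2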.
This is one part, drawn at random, of about 22,000 deposited reagents. About 1,510 of all reagents (6.9%) count as active. 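Active includes knockdowns raising or lowering LDL uptake; positive z-scores mean more uptake, negative mean less.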

Gene	robust z-score, replicate 1	robust z-score, replicate 2	robust z-score, replicate 3	Call
SACK1E (GeneID 54854)	0.783	1.33	-1.22	inactive
WDR26 (GeneID 80232)	-1.27	-1.56	-1.52	inactive
LOC402232 (retired record) (GeneID 402232)	-0.209	-0.15	-0.711	inactive
LOC440343 (retired record) (GeneID 440343)	0.146	0.544	0.325	inactive
CDCP1 (GeneID 64866)	1.65	1.55	1.62	inactive
NR5A2 (GeneID 2494)	-1.25	-1.36	-1.37	inactive
COL27A1 (GeneID 85301)	0.419	0.438	0.244	inactive
IHO1 (GeneID 339834)	0.572	0.621	0.821	inactive
SERTAD2 (GeneID 9792)	-0.731	-1.51	0.291	inactive
CTAGE14P (GeneID 401018)	-1.04	-1.33	-1.14	inactive
TMEM256 (GeneID 254863)	-1.37	-1.37	-1.29	inactive
LOC401855 (retired record) (GeneID 401855)	-1.05	-1.09	-1.38	inactive
DDIT4 (GeneID 54541)	-0.688	1.13	-1.43	inactive
IL4I1 (GeneID 259307)	2.66	2.25	2.3	active
ALDOAP1 (GeneID 391538)	-0.196	0.683	0.381	inactive
RDH14 (GeneID 57665)	-1.01	0.174	-0.979	inactive
FH (GeneID 2271)	-1.42	-0.329	-1.35	inactive

Next part (2 carried over from the part before).
Gene	robust z-score, replicate 1	robust z-score, replicate 2	robust z-score, replicate 3	Call
RDH14 (GeneID 57665)	-1.01	0.174	-0.979	inactive
FH (GeneID 2271)	-1.42	-0.329	-1.35	inactive
TSR3 (GeneID 115939)	0.257	0.571	-0.606	inactive
IPCEF1 (GeneID 26034)	-0.838	0.494	0.631	inactive
CCDC24 (GeneID 149473)	-0.0578	0.985	-0.25	inactive
SP140 (GeneID 11262)	2.03	1.35	1.21	inactive
SMIM8 (GeneID 57150)	-0.57	-0.687	1.23	inactive
LOC387781 (retired record) (GeneID 387781)	2.09	1.49	1.5	inactive
CNKSR2 (GeneID 22866)	-0.812	-1.45	-1.42	inactive
AWAT2 (GeneID 158835)	0.419	0.201	0.117	inactive
FOXC1 (GeneID 2296)	0.0578	-0.537	0.75	inactive
RBMXL2 (GeneID 27288)	-0.67	-0.273	-0.526	inactive
MROCKI (GeneID 285758)	0.734	0.591	1.1	inactive
LOC400606 (retired record) (GeneID 400606)	-0.13	-0.151	0.0238	inactive
ELMOD3 (GeneID 84173)	3.53	3.36	3.49	active
CIMAP2 (GeneID 163747)	0.0843	0.423	0.0437	inactive
VCF1 (GeneID 84923)	-1.36	-1.63	-1.69	inactive
SPECC1 (GeneID 92521)	-0.118	-1.86	-1.24	inactive
ENTREP1 (GeneID 9413)	-0.448	1.53	-0.161	inactive
LINC00663 (GeneID 284440)	0.458	0.417	0.528	inactive
CAMKK1 (GeneID 84254)	0.0385	0.572	0.906	inactive
ABHD16A (GeneID 7920)	-1.09	-2.29	-0.806	inactive
LOC150739 (retired record) (GeneID 150739)	1.63	0.735	0.338	inactive
C19orf12 (GeneID 83636)	0.32	0.404	0.681	inactive
ANK3 (GeneID 288)	-0.115	0.327	0.908	inactive
HOOK1 (GeneID 51361)	1.17	-0.613	-1.26	inactive
CHRAC1 (GeneID 54108)	-1.03	-1.54	-0.912	inactive
CCDC61 (GeneID 729440)	-0.591	-0.338	-0.0884	inactive
TYR (GeneID 7299)	0.492	0.3	-0.196	inactive
VPS36 (GeneID 51028)	-2.59	-0.352	-0.832	inactive
UBA5 (GeneID 79876)	2.97	1.24	3.61	active
